Data reported in article PMC6715681, “A high-throughput screen to identify novel synthetic lethal compounds for the treatment of E-cadherin-deficient cells” (Scientific Reports, 2019).
Some values come without a unit; they compare only within their column.

system: MCF10A WT and MCF10A CDH1^−/− cells; test: Weighted and ranked score (WRS) for hit prioritisation from six screen variables; design: species or system human; settings: WRS, score 0–1; Supplementary Table 2
From the text: To prioritise hits, a weighted and ranked score (WRS) was created for each compound. Rather than using solely an EC50 from each cell line or an extensive list of multi-parametric data from the four-staged screen, six key variables were chosen. Each variable was given a different weighting based on their predicted importance. The sum of the weighted and scored variables produced the WRS to summarise the multi-parametric data of each compound into a single number (Fig. 6). The WRS is a unique tool for hit-selection and was used in combination with a comprehensive assessment of the biological activity of each compound including non-quantifiable traits, i.e. chemical desirability of the scaffold and risks associated with structural features or synthetic accessibility to determine the final lead compounds from the four-staged screen.
Figure 6 The weighted and ranked score. Only the 256 hits entering the 11-point dose-response screens were considered. Compounds were scored using the formula: variable / max(variable) to give a score from 0–1, with 1 being the ideal score. All data was averaged between the three or two biological replicates, for single-point and 11- screens, respectively. (A) Percentage weighting of each variable. (B) Distribution of the sum of weighted and ranked variables.
Since the single point screen was assayed at only one concentration, these two variables were given a combined weighting of 20%.
As well as this, the differential at 20 μM (10% weighting), and the viability of the MCF10A WT cells at the highest concentration of 20 μM (15% weighting) were also included.

SMILES	Sum of Weighted Variables
COc1ccc2nccc(Nc3cccc(C(C)=O)c3)c2c1 [SLEC-2]	0.76
COc1ccc2nc(C)cc(NCc3ccc(F)cc3)c2c1 [SLEC-11, N-(4-Fluorobenzyl)-6-methoxy-2-methylquinolin-4-amine]	0.79
COc1ccc2nc(C)cc(NCC(=O)Nc3cccc(C)c3C)c2c1 [SLEC-12]	0.71
CCOc1ccc2nc(C)cc(SCC(O)C(=O)O)c2c1 (stereo not shown) [SLEC-20]	0.73

same assay, conditions: calculated from six variables; score 0–1

SMILES	WRS (weighted ranked score)
COc1ccc2nccc(Nc3cccc(C(C)=O)c3)c2c1 [SLEC-2]	0.755
COc1ccc2nc(C)cc(NCc3ccc(F)cc3)c2c1 [SLEC-11, N-(4-Fluorobenzyl)-6-methoxy-2-methylquinolin-4-amine]	0.792
COc1ccc2nc(C)cc(NCC(=O)Nc3cccc(C)c3C)c2c1 [SLEC-12]	0.708
CCOc1ccc2nc(C)cc(SCC(O)C(=O)O)c2c1 (stereo not shown) [SLEC-20]	0.734

same assay, conditions: rank by WRS among the 256 hits; Supplementary Table 2

SMILES	Final Rank
COc1ccc2nccc(Nc3cccc(C(C)=O)c3)c2c1 [SLEC-2]	4
COc1ccc2nc(C)cc(NCc3ccc(F)cc3)c2c1 [SLEC-11, N-(4-Fluorobenzyl)-6-methoxy-2-methylquinolin-4-amine]	2
COc1ccc2nc(C)cc(NCC(=O)Nc3cccc(C)c3C)c2c1 [SLEC-12]	8
CCOc1ccc2nc(C)cc(SCC(O)C(=O)O)c2c1 (stereo not shown) [SLEC-20]	6

same assay, conditions: rank in parenthesis, among the 256 hits

SMILES	WRS rank
COc1ccc2nccc(Nc3cccc(C(C)=O)c3)c2c1 [SLEC-2]	4
COc1ccc2nc(C)cc(NCc3ccc(F)cc3)c2c1 [SLEC-11, N-(4-Fluorobenzyl)-6-methoxy-2-methylquinolin-4-amine]	2
COc1ccc2nc(C)cc(NCC(=O)Nc3cccc(C)c3C)c2c1 [SLEC-12]	8
CCOc1ccc2nc(C)cc(SCC(O)C(=O)O)c2c1 (stereo not shown) [SLEC-20]	6
